Experimental findings from the supplement of paper PMC7125110 are described below.

± gives the standard error. Many of these values have a large error.

To fix the notation:
B1: glmS ribozyme (parent)
chain: AUAAAAGCGCCAGAACUACAGAAAUGUAGUUGACGAGGAGGAGGUUUAUCGAAUUUUCGGCGGAUGCCUCCAAA

The first data set covers variants of B1. As to the kind of experiment: kcat; higher = faster cleavage; RNA array. The conditions noted are these: with glucosamine-6-phosphate. The procedure, abridged: (§1)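 Glucosamine-6-phosphate in HEPES/KCl/Mg(OAc)2 buffer, at 40 μM to 10 mM, was flowed over barcoded ribozyme variants transcribed in situ by E. coli RNA polymerase on sequenced MiSeq chips. Tracking was through a hybridised Cy3 probe at 37 °C. kobs, kcat and KM came from exponential decay fits and weighted Michaelis–Menten fits of normalised per-tile medians.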
What is called kcat is the maximal rate divided by the concentration of active sites. Turning to AUAAAAGCGCCAGGACUACAGAAAUGUAGUUGACGAGGAGGAGGUUUAUCGGAUUUUCGGCGGAUGCCUCCAAA [A14G A52G], the catalytic constant (kcat) stood at 0.00672 ± 0.0038 s⁻¹.
On the same count and under the same terms, next, AUAAAAGCGCCAAAACUACAGAAAUGUAGUUGACGAGGAGGAGGUUUAUCGAAUUAUCGGCGGAUGACGCCAAA [G13A U56A C67A U69G]: 6.61e-05 ± 3.9e-05 s⁻¹; AUAAAAGCGCCAGUACUACAGAAAUGUAGUUGACGAGGAGGAGGUUUAUCGAUUUUUCGGCGGAUGCCUCUAAA [A14U A53U C71U]: 0.00782 ± 0.0074 s⁻¹.
Consider AUAAAAGCGCCUGAACUACAGAAAUGUAGUUGACGAGGAGGAGGUUUAUUGAAUUUUCGGCGGAUGCCUCCAAA [A12U C50U], for which the kcat stood at 0.0012 ± 0.001 s⁻¹.
As to AUAAAAGCGCCUGAACUACAGAAAUGUAGUUGACGAGGAGGAGGUUUAUCGAAAUUUCGGCGGAUGCCACCAAA [A12U U54A U69A], the kcat came out at 0.000369 ± 0.00018 s⁻¹.
Still for that read-out and setting: next, AUAAAAGCGCCAGGACUACAGAAAUGUAGGUGACGAGGAGGAGGUUUAUCGAAUUUUCGGCGGAUGCCUCCAAA [A14G U30G]: 0.021 ± 0.015 s⁻¹.
On the same count and under the same terms, with AUAAAAGCGCCAAAACUACAGAAAUGUAGUUGACGAGGAGGAGGUUUAUCGAAUUUUCGGCGGAUGCGUCGAAA [G13A C68G C71G] the figure was 5.26e-05 ± 3.4e-05 s⁻¹; with AUAAAAGCGCCAAAACUACAGAAAUGUAGUUGACGAGGAGGAGGUUUAUCGAAUUUUCGGCGGAUGUCUCCAAA [G13A C67U], 0.000696 ± 0.00054 s⁻¹; with AUAAAAGCGCCAUAACUACAGAAAUGUAGUUGACGAGGAGGAGGUUUAUCGAAUUUUCGGCUGAUGCCUCCAAA [G13U G62U], under 1e-05 s⁻¹.
The same measure, in the same setting: with AUAAAAGCGCCAGUACUACAGAAAUGUAGUUGAAGAGGAGGAGGUUUGUCGAAUUUUCGGCGGAUGCGUCAAAA [A14U C34A A48G C68G C71A] the figure was 0.000597 ± 0.00036 s⁻¹; with AUAAAAGCGCCAGGACUACAGAAAUGUAGUUGACGAGGAGGAGGUUUAUCGAAUAUUCGGCGGCUGCCUUCAAA [A14G U55A A64C C70U], 0.00107 ± 0.00068 s⁻¹; with AUAAAAGCGCCUGAACUACAGAAAUGUAUUUGACGAGGAGGAGGUUUAUCGAAUUUUCUGCGGAUGCGUACAAA [A12U G29U G59U C68G C70A], 3.34e-05 ± 1.4e-05 s⁻¹.
In the case of AUAAAAGCGCCACAACUACAGAAAUGUACUUGACGAGGAGGAGGUUUAUCGAAUUUUCGGCGGAUGCCUCCAAA [G13C G29C], the kcat was determined as 0.000144 ± 7.3e-05 s⁻¹.
On the same count and under the same terms, next, AUAAAAGCGCCUGAAGUACAGAAAUGUAGUUGACGAGGAGGAGGUUUAUCGAAUUUUCGGCGGAUGCCUCCAAA [A12U C16G]: 0.0162 ± 0.013 s⁻¹.
Consider AUAAAAGCGCCUGAAUUACAGAAAUGUAGUUGACGAGGAGGAGGUUUAUCGAAUUUUCGGCGGAUGCCUCCAAA [A12U C16U], for which the kcat came to 0.124 ± 0.11 s⁻¹.
Still for that read-out and setting: with AUAAAAGCGCCAGGACUACAGAAAUGUAGUUGACGAGGAGGAGGUUUAUCGAAUUGUCGGCGGAUGCCUCCAAA [A14G U56G] the figure was 0.0818 ± 0.014 s⁻¹.
Take AUAAAAGCGCCAGCACUACAGAAAUGUAGUUGACGAGGAGGAGGUUUAUCGAAUUUUCGGCGGAUGCCUACAAA [A14C C70A]: the kcat was 0.000106 ± 1.1e-05 s⁻¹.
Still for that read-out and setting: next, AUAAAAGCGCCAAAACUACAGAAAUGUAGUGGACGAGGAGGAGGUUUAUCGAAUUUUCGGCGGAUGCCUCCAAA [G13A U31G]: 0.000328 ± 7.1e-05 s⁻¹.
Still for that read-out and setting: next, AUAAAAGCGCCAAAACUACAGAAAUGUAGUUGACGAGGAGGAGGUUCAUCGAAUUUUCGGCGGAUGCCUCCAAA [G13A U47C]: 8.51e-05 ± 5.3e-06 s⁻¹; AUAAAAGCGCCUGGACUACAGAAAUGUAGUUGACGAGGAGGAGGUUUAUCGAAUUUUCGGCGGAUGCCUCCAAA [A12U A14G]: 0.0488 ± 0.026 s⁻¹.

Another data set covers variants of B1. As to the kind of experiment: KM; higher = weaker cofactor use; RNA array. The conditions noted are these: with glucosamine-6-phosphate. The procedure, abridged:
as §1
In general, KM refers to the substrate concentration at which the rate is half of its maximum. Take AUAAAAGCGCCAGGACUACAGAAAUGUAGUUGACGAGGAGGAGGUUUAUCGGAUUUUCGGCGGAUGCCUCCAAA [A14G A52G]: the KM came to 4.4 ± 3.1 mM.
Same read-out and setting: with AUAAAAGCGCCAGGACUACAGAAAUGUAGGUGACGAGGAGGAGGUUUAUCGAAUUUUCGGCGGAUGCCUCCAAA [A14G U30G] the figure was 1.08 ± 0.99 mM; with AUAAAAGCGCCAAAACUACAGAAAUGUAGUUGACGAGGAGGAGGUUUAUCGAAUUUUCGGCGGAUGUCUCCAAA [G13A C67U], 10.7 ± 10 mM; with AUAAAAGCGCCAGUACUACAGAAAUGUAGUUGAAGAGGAGGAGGUUUGUCGAAUUUUCGGCGGAUGCGUCAAAA [A14U C34A A48G C68G C71A], 16.4 ± 15 mM.
The same measure, in the same setting: with AUAAAAGCGCCAGGACUACAGAAAUGUAGUUGACGAGGAGGAGGUUUAUCGAAUAUUCGGCGGCUGCCUUCAAA [A14G U55A A64C C70U] the figure was 2.61 ± 2.6 mM; with AUAAAAGCGCCACAACUACAGAAAUGUACUUGACGAGGAGGAGGUUUAUCGAAUUUUCGGCGGAUGCCUCCAAA [G13C G29C], 5.44 ± 5 mM.
On the same count and under the same terms, with AUAAAAGCGCCUGAAUUACAGAAAUGUAGUUGACGAGGAGGAGGUUUAUCGAAUUUUCGGCGGAUGCCUCCAAA [A12U C16U] the figure was 3.01 ± 2.9 mM.
On to AUAAAAGCGCCAGGACUACAGAAAUGUAGUUGACGAGGAGGAGGUUUAUCGAAUUGUCGGCGGAUGCCUCCAAA [A14G U56G], for which the Michaelis-Menten constant (KM) was 1.56 ± 0.32 mM.
In the case of AUAAAAGCGCCAGCACUACAGAAAUGUAGUUGACGAGGAGGAGGUUUAUCGAAUUUUCGGCGGAUGCCUACAAA [A14C C70A], the KM came out at 0.413 ± 0.17 mM.
Same read-out and setting: next, AUAAAAGCGCCAAAACUACAGAAAUGUAGUGGACGAGGAGGAGGUUUAUCGAAUUUUCGGCGGAUGCCUCCAAA [G13A U31G]: 11.3 ± 3.9 mM; AUAAAAGCGCCAAAACUACAGAAAUGUAGUUGACGAGGAGGAGGUUCAUCGAAUUUUCGGCGGAUGCCUCCAAA [G13A U47C]: 7.3 ± 1 mM; AUAAAAGCGCCUGGACUACAGAAAUGUAGUUGACGAGGAGGAGGUUUAUCGAAUUUUCGGCGGAUGCCUCCAAA [A12U A14G]: 0.58 ± 0.37 mM.

Variants of B1 are the subject of another data set. As to the kind of experiment: self-cleavage kobs at 2500 uM GlcN6P; higher = faster cleavage; RNA array. The conditions noted are these: with glucosamine-6-phosphate. The procedure, abridged:
as §1
As to AUAAAAGCGCCAAAACUACAGAAAUGUAGUUGACGAGGAGGAGGUUUAUCGAAUUAUCGGCGGAUGACGCCAAA [G13A U56A C67A U69G], the “self-cleavage kobs at 2500 uM GlcN6P” value worked out at 5.56e-05 ± 3.3e-05 s⁻¹.
Still for that read-out and setting: with AUAAAAGCGCCAAAACUACAGAAAUGUAGUUGACGAGGAGGAGGUUCAUCGAAUUUUCGGCGGAUGCCUCCAAA [G13A U47C] the figure was 2.2e-05 ± 2e-05 s⁻¹; with AUAAAAGCGCCUGGACUACAGAAAUGUAGUUGACGAGGAGGAGGUUUAUCGAAUUUUCGGCGGAUGCCUCCAAA [A12U A14G], 0.0625 ± 0.037 s⁻¹.

Variants of B1 are the subject of another data set. The experiment in a line: self-cleavage kobs at 160 uM GlcN6P; higher = faster cleavage; RNA array. The conditions noted are these: with glucosamine-6-phosphate. The method in brief: as §1
Consider AUAAAAGCGCCUGAACUACAGAAAUGUAGUUGACGAGGAGGAGGUUUAUUGAAUUUUCGGCGGAUGCCUCCAAA [A12U C50U], for which the “self-cleavage kobs at 160 uM GlcN6P” value was 2.38e-05 ± 2.2e-05 s⁻¹.

In another data set the parent is B1. As to the kind of experiment: self-cleavage kobs at 10000 uM GlcN6P; higher = faster cleavage; RNA array. To be noted: with glucosamine-6-phosphate. The procedure, abridged: as §1
Take AUAAAAGCGCCAAAACUACAGAAAUGUAGUUGACGAGGAGGAGGUUUAUCGAAUUUUCGGCGGAUGCGUCGAAA [G13A C68G C71G]: the “self-cleavage kobs at 10000 uM GlcN6P” value amounted to 2.81e-05 ± 1.6e-05 s⁻¹.
